Binding data for one molecule are collected here from publication PMC13196150.

For this experiment, the target named is RAB5 (human (endogenous in T-REx-293)). The experiment can be described thus: co-IP; mitochondria-enriched fractions of T-REx-293 cells expressing GLUT10/V5; IP with anti-RAB5 antibodies against control IgG; immunoblot for V5, RAB5 and TIM50.

Results are given in words; binding and its absence hold for the method and conditions named. In cells and extracts the contact can be indirect. A result given as binding can be weak or reduced; the word gives no strength. Sequences can lack the tags named with a protein.

B1: GLUT10/V5 (glucose transporter 10, V5-tagged) (protein, UniProt Q8VHD6 1-536)
chain: MGLRPAVLLLCASVSLLGGLTFGYELAVISGALLPLQLNFGLSCLEQELLVGSLLLGALLASLVGGFLIDCYGRRRAILGSNAVLLAGSLILGLASSLPWLLLGRLSVGFAISLSSMACCIYVSELVGPRQRGVLVSLYEVGITVGILFSYGLNYVLAGSPWGWRHMFGWAAAPALLQSLSLFLLPAGAEGTAAPKDLIPLQGRETSKPGLVKPQYSFLDLFRAQDGMWSRTVVGLGLVLFQQLTGQPNVLYYASTIFRSVGFHGGSSAVLASVGLGTVKVAATLVATGLVDRAGRRVLLLFGCALMALSVSGIGLVSFAVSLDSGPSCLATSNASQQVDLPGSSGLLVRSSLPPVLHTNGDQGQLVLSVTERPIHPVITASLGPVLNTASPVPTSPILEHTLLCWSALVCMMVYVSAFSVGFGPVTWLVLSEIYPAEIRGRAFAFCSSFNWAANLFISLSFLDLIGAIGLAWTFLLYGLTAVLGLAFIYLLVPETKGQSLAEIEQQFQTSRFPLNFGHRQRIGIQYHRLDVSSAS
As to B1, the binding result was “binds”.
